Data published in PubChem BioAssay AID2417 (National Center for Advancing Translational Sciences (NCATS), 2010).
The whole screen tested about 140,000 compounds, of which about 4,300 (3.1%) were called active. Inconclusive results, whose numbers are uncertain, are shown with a selection of clear calls.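 The calls were made as follows: active = readout at or below -70, meaning at least 70% loss of cells showing the perinucleolar compartment, a nuclear body marking cancer cells; inconclusive = readout between -30 and a set limit; inactive = the rest.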

Experiment: High Content Assay for Compounds that inhibit the Assembly of the Perinucleolar Compartment;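 also: plate controls were DMSO wells for no effect and camptothecin positive control wells for full effect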
Settings: PC3M PTB-GFP, PNC prevalence imaging, 16 h; at 10 µM; stronger effect = lower value
Outline: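 PC3M cells stably expressing PTB-GFP, 750–1000 cells/well, treated 16 h at 37 °C with compound (23 nl of library stock), in duplicate. After paraformaldehyde fixation and Hoechst stain, imaged at 20x; PNC prevalence scored by image analysis.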

| SMILES | activity change (PNC), negative = inhibition |
| --- | --- |
| CCCCCCCCNC(=O)C(CCC(=O)OCc1ccccc1)NC(C)=O (stereo not drawn) | inconclusive: -55.5% |
| COc1ccc2nc(NC(=O)CCn3cccc3)sc2c1 | inconclusive: -30.4% |
| CC1(C)Oc2ccccc2OC1(O)c1ccc2ccccc2n1 (stereo not drawn) | active: -113% |
| O=C(CSc1nnnn1-c1ccccc1)Nc1nsc(-c2ccc(Cl)cc2)n1 | inconclusive: -32.9% |
| c1csc(CNCCN2CCOCC2)c1 | inconclusive: -78.8% |
| Cc1nnc2sc(SCc3ccc(Cl)cc3)nn2c1=O | inconclusive: -58.6% |
| O=C(Nc1nncs1)c1c(F)c(F)c(F)c(F)c1F | inconclusive: -42.4% |
| CCN(CC)CCNC(=O)C12CC3CC(C)(CC(C)(C3)C1)C2 | inconclusive: -63.8% |
| S=c1[nH]nc(C23CC4CC(CC(C4)C2)C3)n1Cc1ccco1 | inactive: 18.4% |
| Cc1cc(Cl)c(S(=O)(=O)NCc2ccncc2)cc1OCC(N)=O | inactive: -12.9% |
| O=C(Nc1nnc(-c2ccc(F)cc2)o1)c1cc(Cl)sc1Cl | inactive: 10.6% |
| O=C(Nc1nncs1)c1ccc(S(=O)(=O)c2ccccc2)cc1 | active: -117% |
| COCC(=O)NCc1nc2ccccc2n1Cc1ccccc1F | inconclusive: -48.9% |
| Cc1nn(-c2ccccc2)c2c1C(c1c(C)[nH]c(C#N)c1C)C(C#N)=C(N)O2 (stereo not drawn) | inconclusive: -39.8% |
| Cn1cccc1-c1nc2ccc(NC(=O)c3ccccc3)cc2[nH]1 | inconclusive: -65.3% |
| CCOC(=O)CNC(=O)c1cc(C)oc1C | inactive: 0.0815% |
| CCCCCCC(=O)Nc1ccc(C(=O)N2CCCC2)cc1 | inconclusive: -54% |
| O=C(CSc1nc2ccccc2c(=O)[nH]1)c1ccc(O)c(O)c1 | inconclusive: -57.3% |
| CCSc1nc2c(c(=O)[nH]c(=O)n2C)n1CC(O)COc1ccccc1C (stereo not drawn) | inconclusive: -33.6% |
| COc1cc(C(=O)O)cc(OC)c1OCc1cc(C(=O)O)oc1C | inconclusive: -51.9% |

| SMILES | activity change (PNC), negative = inhibition |
| --- | --- |
| c1ccc2nc(-c3nc4ccccc4[nH]3)ccc2c1 | inconclusive: -45.2% |
| CCc1ccc2[nH]c(=O)c(CN(Cc3ccc4c(c3)OCO4)C(=O)c3ccco3)cc2c1 | inconclusive: -38% |
| CCn1c(SCc2ccccc2)nnc1-c1ccc(S(=O)(=O)N2CCCCC2)cc1 | inconclusive: -43.7% |
| COc1ccc(NC(=O)/C=C/c2cccc(F)c2)cn1 | inconclusive: -49.2% |
| CCn1c2ccc(C)cc2c2nnc(NN)nc21 | inactive: 49.5% |
| O=C(NCc1ccco1)c1cc2nc(-c3ccc4c(c3)OCO4)cc(C(F)(F)F)n2n1 | inconclusive: -41.5% |
| COc1ccc(-n2c(SCC(N)=O)nc3nc4c(cc3c2=O)COC(C)(C)C4)cc1 | inactive: 1.36% |
| COc1ccc(C(=O)Cn2c(=O)c(CCC(=O)O)nn3c4ccccc4nc23)cc1OC | inconclusive: -67.3% |
| CC1CCCCN1C(=O)CSc1nnc(CSc2ncccn2)n1C (stereo not drawn) | inactive: 7% |
| COC(=O)CSc1n[nH]c(-c2cccnc2)n1 | inactive: 32.2% |
| O=C(Nc1ccc(Cl)cc1)c1cccc(N2C(=O)C3C4CCC(C4)C3C2=O)c1 (stereo not drawn) | inactive: 12.6% |
| CCCN(CCC)S(=O)(=O)c1ccc(N2CCCC2=O)c([N+](=O)[O-])c1 | inconclusive: -35% |
| CCCCSc1nc2c(c(=O)n1CC)SC(C)C2 (stereo not drawn) | inconclusive: -74.8% |
| CCc1ccccc1N(CC)C(=O)c1cn(C)c(=O)c2cc(OC)c(OC)cc12 | inconclusive: -42.7% |
| CCNC(=O)C1CN(S(=O)(=O)c2ccccc2)CCN1S(=O)(=O)c1ccccc1 (stereo not drawn) | inactive: 5.41% |
| CC(C)Sc1nc(NCc2ccco2)c2c3c(sc2n1)COC(C)(C)C3 | inconclusive: -53.3% |
| COCCN(C(=O)Cn1nnc2ccccc21)C(C(=O)NC1CCCC1)c1cccc(OC)c1OC (stereo not drawn) | inconclusive: -32.5% |
| O=C(NCCc1csc(-c2ccccc2)n1)c1ccc(Br)o1 | inactive: -22.6% |
| OCCN1CCN(CCCc2c3c(cc4c2CCC4)CCC3)CC1 | inactive: -23.8% |
| CCCCCC(=O)Nc1cc2[nH]c(=O)cc(COC)c2cc1C | inconclusive: -71.2% |

In the list so far, 2 have a COOH group.

| SMILES | activity change (PNC), negative = inhibition |
| --- | --- |
| COc1cc(C(=O)O)cc(OC)c1OCc1cc(C(=O)O)oc1C | inconclusive: -51.9% |
| COc1ccc(C(=O)Cn2c(=O)c(CCC(=O)O)nn3c4ccccc4nc23)cc1OC | inconclusive: -67.3% |

Going on with the list.

| SMILES | activity change (PNC), negative = inhibition |
| --- | --- |
| O=C(NC1CCCc2ccccc21)C1CCN(S(=O)(=O)c2cnc[nH]2)CC1 (stereo not drawn) | inconclusive: -61% |
| Cc1nc(SCn2nnc3ccccc3c2=O)c2c(C)c(C)sc2n1 | inactive: 30% |
| Cc1ccc(-c2nc3ccccc3s2)cc1NC(=S)NC(=O)c1cccc2ccccc12 | inconclusive: -66% |
| O=c1c2cnn(-c3ccccc3)c2nc(-c2cccs2)n1-c1ccc(Br)cc1 | inactive: -22.9% |
| Cc1nnc(SCC(=O)N2CCc3ccccc3C2)s1 | inconclusive: -55.2% |
| O=C(Cn1nnc(-c2ccc(CN3CCOCC3)cc2)n1)N1CCCc2ccccc21 | inactive: 16.6% |
| CCc1ccc(CCC(=O)Nc2sc3c(c2C#N)CCCC3)o1 | inconclusive: -43.6% |
| COc1ccccc1NC(=O)C1=C(C)Nc2nc3ccccc3n2C1c1cccs1 (stereo not drawn) | active: -82.7% |
| O=C(Nc1ncnc2c1ncn2C1OC(COC(=O)c2ccccc2)C(F)C1O)c1ccccc1 (stereo not drawn) | inconclusive: -39.7% |
| CCC(CC)C(=O)NCCc1ccc(F)cc1 | inactive: -8.94% |
| COc1ccc(OC)c(NC(=O)C(Sc2ccccc2)c2ccccc2)c1 (stereo not drawn) | inconclusive: -31.1% |
| COc1ccccc1CN=Cc1[nH]c2ccc(Br)c(Cl)c2c1O | inactive: 18.8% |
| O=C(CSc1nnc(-c2ccccn2)n1Cc1ccccc1)Nc1ccc2c(c1)OCO2 | inconclusive: -51.8% |
| CCSc1nnc(NC(=O)c2csc(C)c2)s1 | inconclusive: -34.6% |
| COc1ccc(C(CC(=O)Nc2ccccc2OC)n2cccc2)cc1 (stereo not drawn) | inactive: -17.7% |
| Cn1nc(-c2ccc(N3CCOCC3)c(NS(=O)(=O)c3ccccc3)c2)c2ccccc2c1=O | inconclusive: -47.5% |
| Cc1[nH]c(C(=O)N/N=C/c2ccc(C(=O)O)cc2)c(C)c1C(=O)N/N=C/c1ccc(C(=O)O)cc1 | inconclusive: -35.6% |
| CC(Sc1nncn1C)C(=O)Nc1nnc(C(C)C)s1 (stereo not drawn) | inconclusive: -59.9% |
